# Experimental data reported in patent publication US20250243560A1, “METAL EXTRACTANT AND SEPARATION RECOVERY METHOD OF METAL IONS USING METAL EXTRACTANT” (FUJIFILM Corporation, priority 2022, published 2025).
# Assays:
# [1] = Separation recovery method I, water phase W2 (Mn, Co, Ni sulfates) mixed with kerosine oil phase of the metal extractant
# Procedure: (§1) In addition, each of sulfates of a combination of metal ions shown in Table 1-1 was dissolved in ultrapure water to prepare each of metal ion-containing aqueous solutions (W2) and (W3) including two or three kinds of metal ions.
# (§2) 12 mL of the extractant (Y1) with respect to 10 mL of the prepared metal ion-containing aqueous solution (W1) was added to a 30 mL vial tube, and the mixture was stirred using a stirrer tip at 25° C. for 30 minutes. In this case, the mixing amount (unit: equivalent) of the metal extractant with respect to the total content of metal ions to be coordinated (that have the same definition as the extracted metal ions; in Example 1, Co and Ni) was 0.5. Next, a 10 M sodium hydroxide aqueous solution or a 10 M hydrochloric acid was added to adjust the pH of the mixed solution to a value shown in the column “pH during Mixing” of Table 1-2. Further, the solution was stirred at 25° C. for 30 minutes, and was left to stand at the same temperature for 1 hour. After verifying that the solution was separated into two layers of the organic phase (oil phase) and the water phase, the separated water phase was extracted, and the separation and recovery of the metal ions was performed. The metal ions extracted in Example 1 and the metal ions extracted in the maximum amount are shown in the column “Kind” and the column “Maximum Amount Extracted” of the column “Extracted Metal Ions” in Table 1-2, respectively.
# (§3) Separation and recovery of metal ions according to Examples 2 to 4 and 8 and Comparative Examples 1 to 6 and 9 were performed using the same method as that of Example 1, except that the metal ion-containing aqueous solution and the metal extractant solution were changed to a combination shown in Table 1-1 and Table 1-2 (hereinafter, both of which are referred to as Table 1″), the pH during the mixing of the water phase and the oil phase was set to a value shown in the column “pH during Mixing” of Table 1-2, and the mixing amount (unit: equivalent) of the metal extractant with respect to the total content of metal ions to be coordinated was set to a value shown in the column “Mixing Amount” of Table 1-2 for mixing and standing. The metal ions extracted in each of Examples and the metal ions extracted in the maximum amount are shown in the column “Kind” and the column “Maximum Amount Extracted” of the column “Extracted Metal Ions” in Table 1-2, respectively.
# (§4) Regarding each of the water phases used in Examples and Comparative Examples and the water phases after the extraction, the pH was measured using a pH meter (SK-620 pH II, manufactured by SATOTECH), and each of the contents of dissolved metal ions was determined using an inductively coupled plasma-optical emission spectrometer (ICP-OES) (Optima 7300 D (trade name), manufactured by Perkin Elmer Co., Ltd.). Measured values of the pH of each of the water phases used in Examples and Comparative Examples and the content of dissolved metal ions in each of the water phases are shown in the column “Water Phase pH” of Table 1-2 and the column “Metal Ion Concentration (ppm)” of Table 1-1. The maximum amount (ppm) of the metal ions extracted measured as described above was divided by the total amount (ppm) of the other metal ions extracted to calculate a ratio between the amounts thereof extracted. The result is shown in the column “Selection Ratio” of Table 1-2.
# [2] = Separation recovery method I, water phase W3 (Zr, Rh sulfates) mixed with kerosine oil phase of the metal extractant
# Procedure: as §1
# 12 mL of the extractant (Y1) with respect to 10 mL of the prepared metal ion-containing aqueous solution (W1) was added to a 30 mL vial tube, and the mixture was stirred using a stirrer tip at 25° C. for 30 minutes. In this case, the mixing amount (unit: equivalent) of the metal extractant with respect to the total content of metal ions to be coordinated (that have the same definition as the extracted metal ions; in Example 1, Co and Ni) was 0.5. Next, a 10 M sodium hydroxide aqueous solution or a 10 M hydrochloric acid was added to adjust the pH of the mixed solution to a value shown in the column “pH during Mixing” of Table 1-2. Further, the solution was stirred at 25° C. for 30 minutes, and was left to stand at the same temperature for 1 hour. After verifying that the solution was separated into two layers of the organic phase (oil phase) and the water phase, the separated water phase was extracted, and the separation and recovery of the metal ions was performed. The metal ions extracted in Example 1 and the metal ions extracted in the maximum amount are shown in the column “Kind” and the column “Maximum Amount Extracted” of the column “Extracted Metal Ions” in Table 1-2, respectively. […]
# Regarding each of the water phases used in Examples and Comparative Examples and the water phases after the extraction, the pH was measured using a pH meter (SK-620 pH II, manufactured by SATOTECH), and each of the contents of dissolved metal ions was determined using an inductively coupled plasma-optical emission spectrometer (ICP-OES) (Optima 7300 D (trade name), manufactured by Perkin Elmer Co., Ltd.). Measured values of the pH of each of the water phases used in Examples and Comparative Examples and the content of dissolved metal ions in each of the water phases are shown in the column “Water Phase pH” of Table 1-2 and the column “Metal Ion Concentration (ppm)” of Table 1-1. The maximum amount (ppm) of the metal ions extracted measured as described above was divided by the total amount (ppm) of the other metal ions extracted to calculate a ratio between the amounts thereof extracted. […]
# [3] = Separation recovery method I, water phase W1 (Co, Ni sulfates) mixed with kerosine oil phase of the metal extractant
# Procedure: 95.4 g of cobalt (II) sulfate heptahydrate (manufactured by FUJIFILM Wako Pure Chemicals Corporation) and 95.7 g of nickel (II) sulfate heptahydrate (manufactured by FUJIFILM Wako Pure Chemicals Corporation) were added to a 1L measuring flask, were diluted with ultrapure water, and were stirred and dissolved at 30° C. As a result, a metal ion-containing aqueous solution (W1) including two kinds of metal ions was prepared.
# as §2, §3, §4
# [4] = Separation recovery method II, water phase W4 (Co, Ni sulfates with lithium chloride) mixed with kerosine oil phase of the metal extractant; details: for Extracted Metal Ions Kind / Extracted Metal Ions Maximum Amount Extracted: W4 (Co, Ni, lithium chloride); for Metal Ion Concentration in Water Phase after Extraction (ppm) Co / Metal Ion Concentration in Water Phase after Extraction (ppm) Ni: W4 with lithium chloride, 20,000 ppm Co and Ni before extraction, extractant 310 mM in kerosine, 25° C., pH during mixing 1.5-2.0
# Procedure: 200 g of lithium chloride (manufactured by FUJIFILM Wako Pure Chemical Corporation), 95.4 g of cobalt (II) sulfate heptahydrate (manufactured by FUJIFILM Wako Pure Chemicals Corporation), and 95.7 g of nickel (II) sulfate heptahydrate (manufactured by FUJIFILM Wako Pure Chemicals Corporation) were added to a 1L measuring flask, were diluted with ultrapure water, and were stirred and dissolved at 30° C. As a result, a metal ion-containing aqueous solution (W4) including two kinds of metal ions was prepared. In this aqueous solution, in the two kinds of metal ions (cobalt and nickel), complex ions to which halide ions were coordinated were formed.
# 12 mL of the extractant (Y3) with respect to 10 mL of the prepared metal ion-containing aqueous solution (W4) was added to a 30 mL vial tube, and the mixture was stirred using a stirrer tip at 25° C. for 30 minutes. In this case, the mixing amount (unit: equivalent) of the metal extractant to the total content of the metal ions was 0.5. Next, a 10 M sodium hydroxide aqueous solution or a 10 M hydrochloric acid was added to adjust the pH of the mixed solution to a value shown in the column “pH during Mixing” of Table 1-2. Further, the solution was stirred at 25° C. for 30 minutes, and was left to stand at the same temperature for 1 hour. After verifying that the solution was separated into two layers of the organic phase (oil phase) and the water phase, the separated water phase was extracted, and the separation and recovery of the metal ions was performed. The metal ions extracted in Example 5 and the metal ions extracted in the maximum amount are shown in the column “Kind” and the column “Maximum Amount Extracted” of the column “Extracted Metal Ions” in Table 1-2, respectively.
# The separation and recovery of the metal ions according to Examples 6 and 7 and Comparative Examples 7 and 8 was performed using the same method as that of Example 5, except that the metal ion-containing aqueous solution and the extractant solution were changed to a combination shown in Table 1-2, and the pH during the mixing of the water phase and the oil phase was set to a value shown in the column “pH during Mixing” of Table 1 for mixing and standing. The metal ions extracted in each of Examples and the metal ions extracted in the maximum amount are shown in the column “Kind” and the column “Maximum Amount Extracted” of the column “Extracted Metal Ions” in Table 1-2, respectively.
# as §4
# [5] = W3, 20,000 ppm Zr and Rh before extraction, pH during mixing 4.2, 25° C.
Compound,Extracted Metal Ions Kind [1],Extracted Metal Ions Maximum Amount Extracted [1],Extracted Metal Ions Kind [3],Extracted Metal Ions Maximum Amount Extracted [3],Extracted Metal Ions Kind [4],Extracted Metal Ions Maximum Amount Extracted [4],Metal Ion Concentration in Water Phase after Extraction (ppm) Co [4],Metal Ion Concentration in Water Phase after Extraction (ppm) Ni [4],other results
CCCCC(CC)CC(C(=O)O)N(CCN(CC(CC)CCCC)C(CC(CC)CCCC)C(=O)O)CC(CC)CCCC (centres unmarked) [E-1],"Mn, Co",Mn,"Co, Ni",Co,,,,,"Extracted Metal Ions Kind ([2]; W3 (Zr, Rh)): Zr, Rh; Extracted Metal Ions Maximum Amount Extracted ([2]; W3 (Zr, Rh)): Zr; Metal Ion Concentration in Water Phase after Extraction (ppm) Rh [2, 5]: 17,000 ppm; Metal Ion Concentration in Water Phase after Extraction (ppm) Zr [2, 5]: <1 ppm"
CCCCC(CC)CCC(C(=O)O)N(CCN(CC(CC)CCCC)C(CCC(CC)CCCC)C(=O)O)CC(CC)CCCC (centres unmarked) [E-2],,,"Co, Ni",Co,,,,,
CCCCC(CC)CN(CCN(CC(CC)CCCC)CC(CC)CCCC)CC(CC)CCCC (centres unmarked) [E-3],,,,,"Co, Ni",Co,<1 ppm,"16,000 ppm",
CCCCCCCCCN(CCCCCCCCC)CCN(CCCCCCCCC)CCCCCCCCC [E-4],,,,,"Co, Ni",Co,<1 ppm,"14,000 ppm",
CCCCC(CC)CN(CC(CC)CCCC)CC1CCC(CN(CC(CC)CCCC)CC(CC)CCCC)CC1 (centres unmarked) [E-5],,,,,"Co, Ni",Co,<1 ppm,"15,000 ppm",
CCCCC(CC)CN(CCN(CC(CC)CCCC)C(CCCOCCOC)C(=O)O)C(CCCOCCOC)C(=O)O (centres unmarked) [E-6],,,"Co, Ni",Co,,,,,
"CCCCC(CC)COP(=O)(O)CC(CC)CCCC (centres unmarked) [PC-88A, mono-2-ethylhexyl(2-Ethylhexyl)phosphonate]","Mn, Co, Ni",Mn,,,,,,,
CCCCC(CC)CN(CC(CC)CCCC)C(=O)CN(CCN(CC(=O)O)CC(=O)N(CC(CC)CCCC)CC(CC)CCCC)CC(=O)O (centres unmarked) [T-1],"Mn, Co, Ni",Mn,,,,,,,
CCCCC(CC)CN(CC(CC)CCCC)C(=O)CNCC(=O)O (centres unmarked) [T-2],"Mn, Co, Ni",Mn,,,,,,,
CCCCC(CC)CC(OCCOC(CC(CC)CCCC)C(=O)O)C(=O)O (centres unmarked) [T-3],,,"Co, Ni",Co,,,,,
CCCCC(CC)COCCOCC(CC)CCCC (centres unmarked) [T-4],,,,,"Co, Ni",Co,"17,000 ppm","18,000 ppm",
CCCCC(CC)CC(C(=O)O)N(CCC(C)SC)CCN(CCC(C)SC)C(CC(CC)CCCC)C(=O)O (centres unmarked) [T-5],,,"Co, Ni",Co,,,,,
"CCCCC(CC)CN(CC(CC)CCCC)CC(CC)CCCC (centres unmarked) [Tris-2-EHA, tris(2-ethylhexyl)amine]",,,,,"Co, Ni",Co,"5,000 ppm","10,000 ppm",
Versatic acid 10 [VA-10],"Mn, Co, Ni",Mn,,,,,,,
